Experimental data as given in PubChem BioAssay AID2685 (National Center for Advancing Translational Sciences (NCATS), 2010).
The other results are listed elsewhere or left out. Shown are side measurements of this screen, not its main read-out; they come without a call. Most of these compounds were active or inconclusive in the main read-out, so they are no random draw. Words in brackets tell the shape of the fitted curve; partial curves, single points and poor fits give uncertain potencies.

Assay: qHTS Assay for Lipid Storage Modulators in Drosophila S3 Cells;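 for cell number change: cells counted by Cell Tracker Red CMTPX staining in the red channel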
Conditions: BODIPY lipid droplet fluorescence, 18-24 h; for cell number change: measured here: cell count max response, cells fed with added oleic acid
Outline: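 Laser-scanning cytometry quantifies lipid droplet accumulation (500–530 nm total intensity; droplet/cell object ratio) in oleic acid-fed (400 uM added) Drosophila S3 cells treated with a concentration series. 20 uM Triacsin C defined 100% inhibition.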

[1] = measured here: cell number channel AC50, cells fed with added oleic acid
[2] = measured here: lipid fluorescence (Fed channel) AC50, cells fed with added oleic acid

Compound | cell number change | AC50 [1] | AC50 [2]
CCn1cc(C(=O)NC2CCc3ccccc32)c(=O)c2ccc(C)nc21 (configuration not stated) | 25.2% | 0.731 µM [rising, partial curve] | 
O=C(Nc1cccn2ncnc12)c1ccccc1 | 158% | 6.51 µM [rising, full curve] | 
COC(=O)c1ccc(Cn2nc(C)c([N+](=O)[O-])c2C)o1 | -38.1% | 9.2 µM [falling, partial curve] | 18.4 µM [falling, partial curve]
Cc1cc2[nH]cnc2c([N+](=O)[O-])c1C | 28.7% |  | 29.1 µM [rising, single point]
Cc1cc(=O)oc2cc(OCC(=O)N3CCN(c4ccc(F)cc4)CC3)c(Cl)cc12 | 6.6% |  | 
NNC(=O)Cn1c(COc2ccc(Cl)cc2)nc2ccccc21 | 26.6% |  | 6.51 µM [rising, partial curve]
NC(=O)CC12CC3CC(C1)CC(CC(N)=O)(C3)C2 | -35.4% | 0.58 µM [falling, full curve] | 1.16 µM [falling, full curve]
OC(CNC1CCCc2ccccc21)COc1ccc2ccccc2c1 (configuration not stated) | -47.2% | 29.1 µM [falling, single point] | 
CCOc1ccc(-c2nnc(-c3cccs3)o2)cc1OCC | 4.76% |  | 0.00461 µM [rising, full curve, poor fit]
CC1CCCCC12NC(=O)N(CC(=O)N1CCc3ccccc3C1)C2=O (configuration not stated) | -25% | 3.66 µM [falling, full curve, poor fit] | 29.1 µM [rising, single point]
CCc1ccccc1NC(=O)CCNS(=O)(=O)c1cc(Br)cnc1N |  |  | 0.116 µM [rising, single point]
CC(=O)c1cccc(NC(=O)CSc2nc(C3CC3)nc3ccccc23)c1 | -34.1% | 32.6 µM [falling, single point] | 29.1 µM [falling, single point]
Cc1ccc(CNC(=O)c2cc3cc(Br)ccc3oc2=N)cc1 | 3.76% |  | 
COc1ccccc1-n1cnc(N)c1C(=O)c1ccccc1 | 32.3% | 7.31 µM [rising, partial curve] | 16.4 µM [falling, partial curve]
COc1ccnc(N=CNOCc2ccc(C)cc2)c1C#N | 20.7% |  | 
O=C(NCCCn1ccnc1)/C(=C/c1cccnc1)NC(=O)c1ccco1 | -29.4% | 0.0259 µM [falling, full curve, poor fit] | 0.00461 µM [falling, full curve, poor fit]
CCC(Oc1ccccc1)C(=O)O/N=C(\N)c1ccc(OC)c(OC)c1 (configuration not stated) | -3.75% | 0.0058 µM [falling, full curve, poor fit] | 0.00461 µM [falling, full curve, poor fit]

Look-ups from the results shown.
O=C(Nc1cccn2ncnc12)c1ccccc1 – cell number change: 158%
Cc1cc2[nH]cnc2c([N+](=O)[O-])c1C – cell number change: 28.7%
